Laboratory results taken from PubChem BioAssay AID2685 (National Center for Advancing Translational Sciences (NCATS), 2010).
This is one part of the list. Shown are side measurements of this screen, not its main read-out; they come without a call. The list favours compounds with an active or inconclusive main result. Potencies come from curve fits of mixed quality, noted in brackets.

Assay: qHTS Assay for Lipid Storage Modulators in Drosophila S3 Cells;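 on cell number change: cells counted by Cell Tracker Red CMTPX staining in the red channel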
Conditions: BODIPY lipid droplet fluorescence, 18-24 h; for cell number change: measured here: cell count max response, cells fed with added oleic acid
Outline: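 Drosophila S3 cells loaded with oleic acid (400 uM, as added) and compounds at several concentrations; lipid droplets imaged by 488-nm laser-scanning cytometry, 500–530 nm intensity and object ratio to cell channel. Percent activity normalized to 20 uM Triacsin C.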

[1] = measured here: cell number channel AC50, cells fed with added oleic acid
[2] = measured here: lipid fluorescence (Fed channel) AC50, cells fed with added oleic acid

SMILES | AC50 [1] | AC50 [2] | cell number change
COc1cccc(C(=O)NCc2ccc(-c3nc4ccccc4s3)cc2)c1 | 0.092 µM [rising, full curve, poor fit] | 0.231 µM [rising, full curve, poor fit] | 
CCC(C)[C@H](NC(=O)CCn1nnc2ccccc2c1=O)C(=O)O (stereo not given in full) |  | 5.17 µM [falling, partial curve, poor fit] | 7.48%
C/C(=N\NC(N)=O)c1ccc(-n2ccnc2)cc1 |  | 0.00651 µM [rising, full curve, poor fit] | 37.2%
N#Cc1c(C(F)(F)F)cc(-c2ccc(F)cc2)[nH]c1=O | 6.51 µM [rising, single point] | 2.06 µM [rising, partial curve] | 1.99%
COc1cc(OC)c(C=O)c(OC(=O)N2CCOCC2)c1 |  | 0.103 µM [falling, partial curve, poor fit] | -9.85%
COc1cccc(C2C(C(=O)c3cc4ccccc4o3)=C(O)C(=O)N2c2cc(C)on2)c1 (stereo not given) |  |  | 27.6%
COc1ccccc1N1CCN(C(=O)C2CCCN(c3ncnc4c3nc3n4CCCCC3)C2)CC1 (stereo not given) |  | 29.1 µM [rising, single point] | 4.48%
CCC(ONc1ccccc1C(F)(F)F)(C(=O)NN(C)C)c1ccccc1 (stereo not given) | 0.58 µM [falling, partial curve, poor fit] | 29.1 µM [rising, single point] | -1.08%
Cc1ccc(NC(=O)CCCC2CCCCC2)c(O)c1 |  |  | -12.7%
CC(C)OCCCNc1ncnc2c1[nH]c1ccc(F)cc12 | 20.6 µM [falling, single point] |  | -66.9%
COc1cc(/C=C2/SC(=O)N(CC(=O)N3CCCC3)C2=O)ccc1Oc1ccc([N+](=O)[O-])cn1 |  | 6.51 µM [falling, single point] | 
CN(C)S(=O)(=O)c1ccc(N2CCCC2)c(C(=O)NC2(C)CCS(=O)(=O)C2)c1 (stereo not given) |  |  | 1.5%
Cc1cc[n+](CC(=O)Nc2nc3ccccc3s2)cc1 | 2.06 µM [falling, partial curve] | 2.31 µM [falling, partial curve] | 1.55%
Cc1c(C(=O)N2CCN(c3ccccn3)CC2)oc2c(F)cccc12 |  | 0.731 µM [falling, single point] | -9.46%
COc1cc(C(=O)OCC(=O)N2CC(C)OC(C)C2)cc(OC)c1OC (stereo not given) |  | 29.1 µM [falling, single point] | 9.46%
Cc1cc(F)ccc1NCc1ccncc1 |  |  | -20.2%

SMILES | AC50 [1] | AC50 [2] | cell number change
COc1cc(SC)ccc1C(=O)Nc1cccc(S(=O)(=O)NC2=NCCC2)c1 |  | 29.1 µM [falling, single point] | -5.5%
Cc1ccc(NC(=O)CCC(=O)N/N=C/c2cccnc2)cc1 |  | 29.1 µM [rising, single point] | 16.7%
Cc1cc(NC(=O)Cn2nc(-c3cccs3)ccc2=O)cc(C)c1Br |  | 3.26 µM [falling, full curve] | 22.2%
Cc1ccccc1OCC(=O)OCC(=O)c1ccc(-c2ccccc2)cc1 | 0.651 µM [falling, single point] | 1.16 µM [falling, single point] | 3.3%
O=C(NCCOCCOCCNC(=O)c1ccccc1)c1ccccc1 |  | 0.184 µM [falling, full curve, poor fit] | -9.97%
CC1=C(C(=O)OCc2ccccc2)C(c2ccccc2Cl)NC(=O)N1CCCC(=O)O (stereo not given) |  | 0.092 µM [falling, full curve, poor fit] | 19.5%
CCC(Oc1ccccc1)C(=O)NCCCN1CCOCC1 (stereo not given) |  |  | 10.4%
C/C(=N\Nc1ccc(C(=O)O)cc1)c1ccc(-n2ccnc2)cc1 |  |  | 25.4%
CC(NC(=O)c1ccccc1)C(=O)OCC(=O)c1c(N)n(C)c(=O)n(C)c1=O (stereo not given) |  | 0.0731 µM [falling, full curve, poor fit] | 27.8%
CC(C)NC(=O)c1cc2cc(Br)ccc2oc1=O | 29.1 µM [rising, single point] |  | 78.1%
CCOc1cccc(/C=C/c2ccc3ccccc3n2)c1OC(C)=O | 0.461 µM [falling, full curve, poor fit] | 0.651 µM [falling, single point] | -24.8%
CCOC(=O)c1ccc(NC(=S)NCCC2=CCCCC2)cc1 |  |  | -28.3%
CCOC(=O)NC(NS(=O)(=O)c1ccccc1)(C(=O)OCC)C(F)(F)F (stereo not given) |  | 0.0651 µM [falling, full curve, poor fit] | -10.9%
CCCNC(=S)Nc1cc2oc3ccccc3c2cc1OC |  |  | -7.65%
COc1ccc(Cc2nnc(SCC(=O)c3ccc(OC)cc3)o2)cc1 |  | 3.26 µM [falling, single point] | 
COCCN(CCOc1cc(C)cc(C)c1)Cc1ccc(Cl)cc1 | 29.1 µM [falling, single point] | 29.1 µM [falling, single point] | -36.3%

Entries above that have an aryl thioether with sulfur outside any ring, in the order listed:
SMILES | AC50 [1] | AC50 [2] | cell number change
COc1cc(SC)ccc1C(=O)Nc1cccc(S(=O)(=O)NC2=NCCC2)c1 |  | 29.1 µM [falling, single point] | -5.5%
COc1ccc(Cc2nnc(SCC(=O)c3ccc(OC)cc3)o2)cc1 |  | 3.26 µM [falling, single point] | 
